Laboratory results taken from patent publication US8865197B2, “Food formulation for aquatic animals with integrated targeted delivery of bioactive agents” (Israel Oceanographic and Limnological Research Ltd., priority 2005, dated 2014).
For at least one compound, name, drawing or mass did not settle the structure.

Test system: rainbow trout
Assay: Cannulation experiment: plasma cortisol response to oral ACTH with gut modulators
Format: in vivo, rainbow trout (Oncorhynchus mykiss)
Conditions: change relative to no modulator
Experimental: Rainbow trout of a weight range of 750-1700 g (Spring Valley Trout Farms, Langley, BC) were immunized against firunculosis and vibriosis by injecting them with 0.2 ml fish^−1 of a 1:1 ratio of VIBRIOGEN and FUROGEN (Microtek, BC, Canada), and stocked in 4,000 liter tanks. The tanks were supplied with well water at a temperature of 10±0.5° C. at about 10 exchanges per day. After 10 days fish were transferred gradually over a period of another 10 days to full strength seawater (25-29 ppt). The temperature of the seawater ranged between 7-9° C. according to season. Only following their acclimation to seawater, after another 10 days, were fish used. […] Fish were fed daily about 1% BW of a 42% protein and 33% crude fat diet (Moore-Clark Co., Canada).
Fish were kept individually in 200 1 fiberglass tub aquaria. Fish in the tanks were confined to one half of the tank with a partition. […]
To measure plasma cortisol, 20 μl of plasma was applied to a kit by INCSTAR (Minnesota, USA). […] Porcine ACTH (SIGMA) which was used for the intubation study elicited a cortisol response in fish but could not be detected reliably by the cortisol RIA. Plasma hCG was also determined based on a RIA (INCSTAR) kit and of the orally applied hCG based on Van der Kraak et al. (1984). […]

In the case of `C[C@H](CCC(=O)O)[C@H]1CC[C@H]2[C@@H]3CC[C@@H]4C[C@H](O)CC[C@]4(C)[C@H]3C[C@H](O)[C@]12C` [DOC, deoxycholic acid], the “gut penetrability to ACTH as reflected by plasma cortisol” value is reported as “quadrupled”.
